Measurements: paper PMC9455066
These are yes or no findings as the source states them, for the method shown. In cells and extracts the contact can be indirect. Here binding means that the protein was enriched with, or labelled near, the bait; the list need not be complete.

Amino acid sequences for entries named in this document (tags omitted).
UniProt P01106: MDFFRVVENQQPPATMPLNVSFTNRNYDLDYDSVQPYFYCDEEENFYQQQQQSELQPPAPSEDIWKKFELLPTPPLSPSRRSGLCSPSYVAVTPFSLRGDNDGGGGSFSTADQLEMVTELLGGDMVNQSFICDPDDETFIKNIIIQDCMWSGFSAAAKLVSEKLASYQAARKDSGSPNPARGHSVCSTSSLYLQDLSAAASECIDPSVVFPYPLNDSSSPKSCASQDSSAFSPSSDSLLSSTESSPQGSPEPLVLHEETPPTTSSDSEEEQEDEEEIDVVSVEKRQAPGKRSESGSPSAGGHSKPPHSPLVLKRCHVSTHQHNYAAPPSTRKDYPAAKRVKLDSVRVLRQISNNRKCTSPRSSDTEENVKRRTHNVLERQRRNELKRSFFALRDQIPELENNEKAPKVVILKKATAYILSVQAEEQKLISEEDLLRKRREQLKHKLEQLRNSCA

Target: T1, ubiquitin-like, containing PHD and RING finger domain, 1 (UHRF1) (human (endogenous in MOLT4 and REH)) (UniProt Q96T88)
T1 sequence: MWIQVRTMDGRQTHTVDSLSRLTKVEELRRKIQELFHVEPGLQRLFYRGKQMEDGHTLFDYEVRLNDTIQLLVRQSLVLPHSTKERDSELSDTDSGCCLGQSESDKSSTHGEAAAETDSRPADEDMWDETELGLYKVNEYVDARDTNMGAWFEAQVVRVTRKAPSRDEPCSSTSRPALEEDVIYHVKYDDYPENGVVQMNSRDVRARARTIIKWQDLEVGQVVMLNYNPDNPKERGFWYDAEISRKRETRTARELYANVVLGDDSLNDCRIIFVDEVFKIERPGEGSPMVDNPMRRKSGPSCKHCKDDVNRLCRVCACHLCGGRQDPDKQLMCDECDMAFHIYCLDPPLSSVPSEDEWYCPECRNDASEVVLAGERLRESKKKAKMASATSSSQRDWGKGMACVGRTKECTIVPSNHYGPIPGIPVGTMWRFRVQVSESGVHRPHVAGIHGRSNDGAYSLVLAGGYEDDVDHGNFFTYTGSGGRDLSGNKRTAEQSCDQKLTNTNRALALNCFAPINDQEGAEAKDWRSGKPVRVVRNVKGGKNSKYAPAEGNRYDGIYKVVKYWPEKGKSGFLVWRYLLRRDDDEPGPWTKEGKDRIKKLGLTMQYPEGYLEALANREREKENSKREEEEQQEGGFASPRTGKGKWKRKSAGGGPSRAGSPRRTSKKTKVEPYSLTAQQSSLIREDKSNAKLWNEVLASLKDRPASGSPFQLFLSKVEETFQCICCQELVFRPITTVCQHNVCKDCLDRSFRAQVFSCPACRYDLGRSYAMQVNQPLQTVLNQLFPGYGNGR
Assay: affinity purification with mass spectrometry; anti-UHRF1 IP and anti-IgG IP from REH cells on SDS-PAGE, Zn stain; bands at 90 kDa (UHRF1) and 50 kDa (cMyc) cut, in-gel digested with trypsin, LC-MS/MS (Orbitrap ELITE), FDR = 0.01

- binding: binds
Substance: c-Myc (from UniProt P01106 1-454)
